The record followed here is doi:10.1101/2022.01.31.478155.

Protein sequences, listed by entry. Tags and fused reporters are not part of them.
UniProt Q56B11: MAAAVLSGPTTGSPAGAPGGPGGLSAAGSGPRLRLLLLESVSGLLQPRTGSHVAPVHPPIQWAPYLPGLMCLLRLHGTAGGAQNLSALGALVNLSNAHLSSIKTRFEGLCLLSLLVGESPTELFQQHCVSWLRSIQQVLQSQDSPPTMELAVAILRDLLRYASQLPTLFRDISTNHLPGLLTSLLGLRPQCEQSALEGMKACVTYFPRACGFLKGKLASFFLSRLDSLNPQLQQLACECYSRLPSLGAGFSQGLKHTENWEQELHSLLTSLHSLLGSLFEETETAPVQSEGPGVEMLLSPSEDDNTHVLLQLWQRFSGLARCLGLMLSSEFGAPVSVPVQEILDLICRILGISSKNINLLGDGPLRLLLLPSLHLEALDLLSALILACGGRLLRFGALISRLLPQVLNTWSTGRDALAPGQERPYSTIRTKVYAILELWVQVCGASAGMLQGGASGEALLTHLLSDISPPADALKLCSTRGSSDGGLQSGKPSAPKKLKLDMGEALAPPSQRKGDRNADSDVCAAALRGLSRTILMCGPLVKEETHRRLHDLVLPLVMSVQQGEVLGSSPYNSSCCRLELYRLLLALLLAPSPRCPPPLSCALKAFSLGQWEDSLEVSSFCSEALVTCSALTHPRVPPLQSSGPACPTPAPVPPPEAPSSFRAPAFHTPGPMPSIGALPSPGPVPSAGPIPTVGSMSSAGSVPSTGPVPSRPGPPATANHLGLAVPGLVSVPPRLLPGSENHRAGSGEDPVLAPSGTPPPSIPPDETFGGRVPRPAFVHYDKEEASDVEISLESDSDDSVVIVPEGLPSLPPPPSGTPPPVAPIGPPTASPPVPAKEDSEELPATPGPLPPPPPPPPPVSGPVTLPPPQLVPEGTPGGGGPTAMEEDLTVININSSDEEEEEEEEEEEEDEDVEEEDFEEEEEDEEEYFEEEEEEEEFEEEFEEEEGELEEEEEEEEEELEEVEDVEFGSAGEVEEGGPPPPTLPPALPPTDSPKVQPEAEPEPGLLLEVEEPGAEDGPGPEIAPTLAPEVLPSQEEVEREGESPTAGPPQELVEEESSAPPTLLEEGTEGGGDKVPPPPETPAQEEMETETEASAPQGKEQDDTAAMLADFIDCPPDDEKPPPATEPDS
UniProt P15205: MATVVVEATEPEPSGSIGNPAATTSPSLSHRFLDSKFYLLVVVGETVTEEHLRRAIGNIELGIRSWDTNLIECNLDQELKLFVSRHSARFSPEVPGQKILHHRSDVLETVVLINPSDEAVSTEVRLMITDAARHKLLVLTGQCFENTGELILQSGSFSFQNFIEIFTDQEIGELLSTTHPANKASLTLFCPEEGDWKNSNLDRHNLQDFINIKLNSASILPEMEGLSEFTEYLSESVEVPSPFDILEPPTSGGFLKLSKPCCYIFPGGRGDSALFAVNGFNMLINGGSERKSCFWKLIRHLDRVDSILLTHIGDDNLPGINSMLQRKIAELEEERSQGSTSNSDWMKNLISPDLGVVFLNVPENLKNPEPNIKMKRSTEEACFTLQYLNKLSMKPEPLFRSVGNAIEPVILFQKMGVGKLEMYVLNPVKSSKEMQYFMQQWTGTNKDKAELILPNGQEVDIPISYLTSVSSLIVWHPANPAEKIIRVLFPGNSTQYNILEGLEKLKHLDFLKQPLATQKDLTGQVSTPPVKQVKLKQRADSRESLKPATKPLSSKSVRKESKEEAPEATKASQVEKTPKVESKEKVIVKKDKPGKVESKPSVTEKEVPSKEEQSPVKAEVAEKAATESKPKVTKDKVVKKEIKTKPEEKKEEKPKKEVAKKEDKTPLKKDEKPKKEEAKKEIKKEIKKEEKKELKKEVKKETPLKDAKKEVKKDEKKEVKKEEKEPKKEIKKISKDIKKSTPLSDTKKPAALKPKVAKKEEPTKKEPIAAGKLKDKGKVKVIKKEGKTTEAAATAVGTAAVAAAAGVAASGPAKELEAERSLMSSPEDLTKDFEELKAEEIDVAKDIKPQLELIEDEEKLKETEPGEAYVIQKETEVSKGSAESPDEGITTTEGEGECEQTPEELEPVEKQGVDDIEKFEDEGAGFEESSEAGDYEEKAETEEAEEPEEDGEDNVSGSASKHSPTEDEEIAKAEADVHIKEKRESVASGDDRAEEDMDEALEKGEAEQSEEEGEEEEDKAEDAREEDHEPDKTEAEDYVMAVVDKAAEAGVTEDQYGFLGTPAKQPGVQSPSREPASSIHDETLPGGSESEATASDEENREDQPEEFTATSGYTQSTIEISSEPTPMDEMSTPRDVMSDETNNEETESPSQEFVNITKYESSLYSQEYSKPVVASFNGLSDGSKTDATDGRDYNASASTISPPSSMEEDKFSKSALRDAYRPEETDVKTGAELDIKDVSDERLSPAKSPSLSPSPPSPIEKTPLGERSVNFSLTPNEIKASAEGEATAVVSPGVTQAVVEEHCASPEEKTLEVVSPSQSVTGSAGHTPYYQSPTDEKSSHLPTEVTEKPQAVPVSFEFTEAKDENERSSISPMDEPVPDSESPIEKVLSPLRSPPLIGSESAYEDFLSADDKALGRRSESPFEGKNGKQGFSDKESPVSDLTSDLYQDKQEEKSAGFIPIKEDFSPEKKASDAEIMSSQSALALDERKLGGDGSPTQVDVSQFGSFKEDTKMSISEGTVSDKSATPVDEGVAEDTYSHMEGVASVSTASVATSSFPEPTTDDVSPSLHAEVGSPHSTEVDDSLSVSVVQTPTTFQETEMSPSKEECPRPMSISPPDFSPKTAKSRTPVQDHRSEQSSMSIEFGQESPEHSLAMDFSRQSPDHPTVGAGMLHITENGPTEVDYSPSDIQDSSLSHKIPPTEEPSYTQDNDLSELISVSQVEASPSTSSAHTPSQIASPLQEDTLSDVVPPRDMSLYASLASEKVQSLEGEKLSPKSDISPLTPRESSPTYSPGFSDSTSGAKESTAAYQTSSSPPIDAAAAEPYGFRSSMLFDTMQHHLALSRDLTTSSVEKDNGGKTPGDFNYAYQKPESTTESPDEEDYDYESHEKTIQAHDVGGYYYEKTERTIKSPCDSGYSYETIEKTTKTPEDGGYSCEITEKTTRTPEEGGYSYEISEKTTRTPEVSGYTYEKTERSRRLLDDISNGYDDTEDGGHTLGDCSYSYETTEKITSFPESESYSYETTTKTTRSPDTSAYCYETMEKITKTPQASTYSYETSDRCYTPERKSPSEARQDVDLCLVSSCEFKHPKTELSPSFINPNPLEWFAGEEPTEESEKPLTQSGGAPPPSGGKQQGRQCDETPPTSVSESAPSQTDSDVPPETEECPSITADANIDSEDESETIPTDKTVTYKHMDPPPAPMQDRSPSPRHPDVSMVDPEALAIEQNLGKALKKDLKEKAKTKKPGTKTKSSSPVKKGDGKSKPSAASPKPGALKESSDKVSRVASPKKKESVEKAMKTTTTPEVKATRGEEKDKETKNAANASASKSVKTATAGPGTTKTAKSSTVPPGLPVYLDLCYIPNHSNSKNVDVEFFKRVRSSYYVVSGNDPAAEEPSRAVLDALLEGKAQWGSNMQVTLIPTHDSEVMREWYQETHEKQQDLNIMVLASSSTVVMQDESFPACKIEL

For assay [1], the target named is T1, translation initiation factor eIF5b (rat (endogenous in Wistar rat cortex)) (UniProt B2GUV7).
T1 sequence: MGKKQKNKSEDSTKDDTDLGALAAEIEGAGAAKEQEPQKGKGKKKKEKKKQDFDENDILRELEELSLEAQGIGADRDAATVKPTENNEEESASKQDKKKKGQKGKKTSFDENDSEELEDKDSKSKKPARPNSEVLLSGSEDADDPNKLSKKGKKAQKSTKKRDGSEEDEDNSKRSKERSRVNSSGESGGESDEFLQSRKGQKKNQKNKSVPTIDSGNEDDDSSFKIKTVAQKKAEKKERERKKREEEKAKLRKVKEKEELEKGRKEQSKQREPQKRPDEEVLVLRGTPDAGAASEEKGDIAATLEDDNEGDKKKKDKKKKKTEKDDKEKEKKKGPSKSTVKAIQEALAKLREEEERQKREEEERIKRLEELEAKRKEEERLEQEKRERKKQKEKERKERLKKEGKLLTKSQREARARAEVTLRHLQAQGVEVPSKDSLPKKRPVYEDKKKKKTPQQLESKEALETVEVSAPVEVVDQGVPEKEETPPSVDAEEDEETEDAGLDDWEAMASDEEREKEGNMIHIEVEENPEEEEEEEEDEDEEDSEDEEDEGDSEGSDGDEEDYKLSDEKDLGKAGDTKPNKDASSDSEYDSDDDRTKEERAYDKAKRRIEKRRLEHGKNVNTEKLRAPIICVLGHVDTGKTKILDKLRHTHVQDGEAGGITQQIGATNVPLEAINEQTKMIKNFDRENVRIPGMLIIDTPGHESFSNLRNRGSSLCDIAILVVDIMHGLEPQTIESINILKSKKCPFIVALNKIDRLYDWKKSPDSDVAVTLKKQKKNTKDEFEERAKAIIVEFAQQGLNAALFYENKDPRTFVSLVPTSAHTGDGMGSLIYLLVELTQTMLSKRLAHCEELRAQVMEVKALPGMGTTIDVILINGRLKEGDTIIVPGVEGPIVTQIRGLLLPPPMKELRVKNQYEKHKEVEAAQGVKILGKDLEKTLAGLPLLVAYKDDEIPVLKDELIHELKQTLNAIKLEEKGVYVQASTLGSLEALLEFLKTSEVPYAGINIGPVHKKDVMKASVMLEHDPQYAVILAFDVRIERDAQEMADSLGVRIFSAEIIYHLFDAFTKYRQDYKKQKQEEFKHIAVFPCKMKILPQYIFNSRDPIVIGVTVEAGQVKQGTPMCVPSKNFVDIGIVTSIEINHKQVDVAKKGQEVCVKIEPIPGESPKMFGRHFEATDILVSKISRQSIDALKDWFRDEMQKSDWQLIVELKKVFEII
As to the kind of experiment: cross-linking.

In assay [2] the target is Proline-, glutamic acid- and leucine-rich protein 1 (PELP1) (rat (endogenous in Wistar rat cortex)) (UniProt Q56B11). Briefly: cross-linking.

Results are given in words; binding and its absence hold for the method and conditions named. In cells and extracts the contact can be indirect. Some binding calls cover weakened binding; strength is not graded here.

Consider “microtubule associated protein Map1b (from UniProt P15205 1-2461)”, for which the binding result in assay [1] is “binds”.

B1: Caprin-1 (protein, UniProt Q5M9G3 1-707)
chain: MPSATSHSGSGSKSSGPPPPSGSSGSEAAAGAAAPASQHPATGTGAVQTEAMKQILGVIDKKLRNLEKKKGKLDDYQERMNKGERLNQDQLDAVSKYQEVTNNLEFAKELQRSFMALSQDIQKTIKKTARREQLMREEAEQKRLKTVLELQYVLDKLGDDDVRTDLKQGLSGVPILSEEELSLLDEFYKLVDPERDMSLRLNEQYEHASIHLWDLLEGKEKPVCGTTYKALKEIVERVFQSNYFDSTHNHQNGLCEEEEAASAPIVEDQVAEAEPEPTEEYTEQSEVESTEYVNRQFMAETQFSSGEKEQVDEWAVETVEVVNSLQQQPQAASPSVPEPHSLTPVAQSDPLVRRQRVQDLMAQMQGPYNFIQDSMLDFENQTLDPAIVSAQPMNPTQNMDMPQLVCPQVHSESRLAQSNQVPVQPEATQVPLVSSTSEGYTASQPLYQPSHAAEQRPQKEPIDQIQATISLNTEQTTASSSLPAASQPQVFQAGASKPLHSSGINVNAAPFQSMQTVFNMNAPVPPVNEPETLKQQSQYQASYNQSFSSQPHQVEQTELQQDQLQTVVGTYHGSQDQPHQVPGNHQQPPQQSTGFPRSSQPYYNSRGVSRGGSRGARGLMNGYRGPANGFRGGYDGYRSSFSNTPNSGYTQSQFNAPRDYSGYQRDGYQQNFKRGSGQSGPRGAPRGRGGPPRPNRGMPQMNTQQVN
For the molecule B1, in assay [2], the binding result is listed as “binds”.
